Assay results from the supplement of paper PMC12578635.
± gives the standard deviation of the averaged measurements. The list shows a part of the results. Single values are uncertain, as repeats are few or missing.

test system: RAW 264.7 macrophages infected with S. aureus JE2-lux; test: host macrophage viability (CellTiter-Fluor) relative to DMSO vehicle; higher = more viable host cells; settings: 10 µM; treatment time 4 h; gentamicin 50 µg/ml

With `Cc1cccc(-c2nc3scc(CCNC(=O)c4ccc5c(c4)OCO5)n3n2)c1` as the compound, how does the host macrophage viability read?
The host macrophage viability was 113%.

`COc1ccc(-c2cc(C(F)(F)F)c(C#N)c(SCCC(=O)O)n2)cc1` was tested. Which host macrophage viability did it give?
The host macrophage viability was 136%.

For `CC1CCc2nc(Nc3nc4ccc(F)cc4s3)sc2C1` (configuration not stated), which host macrophage viability is on record?
The host macrophage viability was 102 ± 10%.

Which host macrophage viability does the source give for `CCCCSc1nc2c(c(=O)[nH]1)C(c1ccc(OC)cc1)C1=C(CCCC1=O)N2` (configuration not stated) here?
Its host macrophage viability is 115%.

With `C=CCc1c(C)nc(-c2ccccc2)nc1Nc1ccc(C(=O)O)cc1` as the compound, how does the host macrophage viability read?
Its host macrophage viability is 123%.

For `NC(=O)C1Cc2ccccc2N1C(=O)c1ccc(S(=O)(=O)N2CCCC2)cc1` (configuration not stated), which host macrophage viability is on record?
The host macrophage viability was 115%.

With `CCOC(=O)C(C)NC(=O)Nc1c(-c2cccnc2)[nH]c2ccc(Cl)cc12` (configuration not stated) as the compound, how does the host macrophage viability read?
Its host macrophage viability is 98.8%.

`Cc1nc2ccccc2c2nn(CC(=O)NC3CCCC3)c(=O)n12` was tested. Which host macrophage viability did it give?
Its host macrophage viability is 135%.

`O=C(CSCc1nc(O)c2nnn(Cc3ccc(F)cc3)c2n1)Nc1cccc2ccccc12` was tested. Which host macrophage viability did it give?
Its host macrophage viability is 101%.

Which host macrophage viability does the source give for `Cc1ccc(Cl)cc1N1CCN(C(=O)c2cnc(N3CCCCC3)c3ccccc23)CC1` here?
The host macrophage viability was 122%.

How did the host macrophage viability turn out when `O=C(Cn1cnc2c(cnn2-c2ccc(F)cc2)c1=O)Nc1cccc([N+](=O)[O-])c1` was run?
Its host macrophage viability is 88.1 ± 5.3%.

`CCOC(=O)C(=O)NCC(c1ccco1)S(=O)(=O)c1ccccc1` (configuration not stated) was tested. Which host macrophage viability did it give?
Its host macrophage viability is 116%.

`COC(=O)c1cc(N/N=C2\C=CC(=O)c3ccccc32)cc(C(=O)OC)c1` was tested. Which host macrophage viability did it give?
Its host macrophage viability is 120%.

How did the host macrophage viability turn out when `Cc1cc(N(C)C)nc(N2CCN(C(=O)c3ccc(F)cc3)CC2)n1` was run?
The host macrophage viability was 115%.

With `O=C(Cn1nc(C(F)(F)F)c2cccn2c1=O)NC1CCCC1` as the compound, how does the host macrophage viability read?
Its host macrophage viability is 120%.

Which host macrophage viability does the source give for `O=C(NCc1cccnc1)C(=O)Nc1cc2c3c(c1)CCC(=O)N3CCC2` here?
Its host macrophage viability is 114%.

Which host macrophage viability does the source give for `O=C(CCCN1C(=O)S/C(=C/c2ccccc2)C1=S)Nc1ccc(C(=O)O)cc1` here?
The host macrophage viability was 84.4%.

How did the host macrophage viability turn out when `Cc1cc(NC2CCCCC2)n2c(nc3ccccc32)c1C#N` was run?
The host macrophage viability was 136%.

With `Cc1cc(C)c(NC(=O)c2sc3nc4c(cc3c2N)C(=O)CC(C)(C)C4)c(C)c1` as the compound, how does the host macrophage viability read?
The host macrophage viability was 123%.

For `O=C(NCc1ccccc1)c1nn(-c2ccccc2)c2nc[nH]c(=O)c12`, which host macrophage viability is on record?
The host macrophage viability was 92.6%.

With `O=C1C=C/C(=N/Nc2ccc3c(c2)OCO3)c2cccnc21` as the compound, how does the host macrophage viability read?
The host macrophage viability was 90.4%.

How did the host macrophage viability turn out when `O=CC1CSc2[nH]c(=O)sc2C1c1ccc(OCc2ccccc2)cc1` (configuration not stated) was run?
The host macrophage viability was 114%.

`CCOc1cccc2c1Oc1nc(-c3ccc(OC)c(OC)c3)[nH]c(=O)c1C2` was tested. Which host macrophage viability did it give?
The host macrophage viability was 131%.

How did the host macrophage viability turn out when `CCOc1ccc2nc(-n3nc(C)c4c3NC(=O)CC4c3cnn(CC)c3)sc2c1` (configuration not stated) was run?
The host macrophage viability was 119%.

How did the host macrophage viability turn out when `Cc1sc2nc(SCC(=O)Nc3c[nH]c(=O)[nH]c3=O)[nH]c(=O)c2c1C` was run?
The host macrophage viability was 123%.

For `O=C(CCN1C(=O)/C(=C/c2ccc(Cl)cc2Cl)SC1=S)Nc1cccnc1`, which host macrophage viability is on record?
The host macrophage viability was 95.8%.

How did the host macrophage viability turn out when `CCOC(=O)c1cc(-c2ccccn2)c(N2CCOCC2)s1` was run?
The host macrophage viability was 111%.

For `Cn1c(SCC(=O)NCC2CCCO2)ncc(C(=O)Nc2ccccc2)c1=O` (configuration not stated), which host macrophage viability is on record?
The host macrophage viability was 113%.

`Cc1c(NC(=O)c2ncoc2-c2ccc(F)cc2)c(=O)n(-c2ccccc2)n1C` was tested. Which host macrophage viability did it give?
Its host macrophage viability is 135%.

How did the host macrophage viability turn out when `Cc1ccc(-c2ocnc2C(=O)N2CCN(c3ncccn3)CC2)cc1` was run?
Its host macrophage viability is 113%.

For `O=C(CCCS(=O)(=O)c1ccccc1)Nc1nc2c(Cl)ccc(Cl)c2s1`, which host macrophage viability is on record?
The host macrophage viability was 118%.

Which host macrophage viability does the source give for `Cc1ccc(NS(=O)(=O)c2ccc3c(c2)C(=O)c2ccccc2C3=O)c(C)c1` here?
The host macrophage viability was 114%.

`O=C(Nc1ccc(NC(=O)c2cccc3nccnc23)cc1)c1ccccn1` was tested. Which host macrophage viability did it give?
The host macrophage viability was 118%.

Which host macrophage viability does the source give for `CC(C)(C)C1CCc2c(sc3nc(CN4CCN(C(=O)c5ccco5)CC4)[nH]c(=O)c23)C1` (configuration not stated) here?
Its host macrophage viability is 121%.

With `Cc1ccc(-c2noc3c(=O)n(CCC(=O)Nc4nc5ccc(C)cc5s4)cnc23)cc1` as the compound, how does the host macrophage viability read?
The host macrophage viability was 77.6%.

Which host macrophage viability does the source give for `Cc1ccccc1C(NC(=O)c1[nH]c2ccccc2c1C)c1ccncc1` (configuration not stated) here?
The host macrophage viability was 108%.

Which host macrophage viability does the source give for `Cc1cc2c(o1)CCc1sc(N(C)C(=O)Cc3ccccc3F)nc1-2` here?
Its host macrophage viability is 104%.

For `Cc1ccccc1C(=O)n1nc(-c2ccccc2)nc1N`, which host macrophage viability is on record?
The host macrophage viability was 92.6%.

With `Cc1nc(-c2cccc(NS(=O)(=O)c3ccc4ccccc4c3)c2)cs1` as the compound, how does the host macrophage viability read?
The host macrophage viability was 119 ± 11%.

Which host macrophage viability does the source give for `Cc1cccc(C(=O)Nc2cnc(N3CCN(c4ncnc5ccccc45)CC3)c(C(=O)O)c2)c1` here?
Its host macrophage viability is 88.4%.

How did the host macrophage viability turn out when `Cc1ccc(-c2csc(NC(=O)CSc3nncc(=O)[nH]3)n2)cc1` was run?
The host macrophage viability was 108%.

With `Cc1n[nH]c(C)c1S(=O)(=O)NCCOc1ccc(-c2cccs2)nn1` as the compound, how does the host macrophage viability read?
The host macrophage viability was 111%.

Which host macrophage viability does the source give for `Cc1c(C)n2c(SCC(=O)NCC3CCCO3)nnc2[nH]c1=O` (configuration not stated) here?
The host macrophage viability was 110%.

With `CN(CCCC(=O)Nc1nccs1)S(=O)(=O)c1ccc(Cl)cc1` as the compound, how does the host macrophage viability read?
The host macrophage viability was 113%.

Which host macrophage viability does the source give for `COc1ccc(-c2n[nH]c3nc(-c4ccc(F)cc4)cc(C(=O)NC(C)c4ccccc4)c23)cc1` (configuration not stated) here?
The host macrophage viability was 129%.

With `O=C(Nc1c2c(nn1-c1ccc(Cl)cc1)CS(=O)(=O)C2)c1ccc(Cl)cc1Cl` as the compound, how does the host macrophage viability read?
Its host macrophage viability is 117%.

`COc1ccc2c(c1)cc(C)c1nn(CC(=O)Nc3cccc(C(C)=O)c3)c(=O)n12` was tested. Which host macrophage viability did it give?
Its host macrophage viability is 111%.

How did the host macrophage viability turn out when `O=C(Cn1cnc2ccccc21)Nc1ccccc1` was run?
The host macrophage viability was 105.5 ± 0.12%.

How did the host macrophage viability turn out when `CCCCNC(=O)CSc1nc(-c2ccc(C(C)C)cc2)no1` was run?
The host macrophage viability was 101%.

Which host macrophage viability does the source give for `COc1cccc(NC(=O)Cn2c(=O)cc(C)c3c(C)nn(-c4ccccc4)c32)c1` here?
Its host macrophage viability is 108%.

How did the host macrophage viability turn out when `CC(=O)NC(=O)c1cc2cc(Br)ccc2o/c1=N\c1ccc(F)cc1` was run?
Its host macrophage viability is 104%.

For `Cc1ccnc(NS(=O)(=O)c2ccc(NC(=O)c3cc(-c4cccs4)on3)cc2)n1`, which host macrophage viability is on record?
Its host macrophage viability is 124%.
